{"sequences": {"note": "Sequences of proteins named here, by UniProt entry; tags and fusion partners are left off. A change or cut given only in a name is not applied to a line headed by its entry.", "UniProt Q96BS2": "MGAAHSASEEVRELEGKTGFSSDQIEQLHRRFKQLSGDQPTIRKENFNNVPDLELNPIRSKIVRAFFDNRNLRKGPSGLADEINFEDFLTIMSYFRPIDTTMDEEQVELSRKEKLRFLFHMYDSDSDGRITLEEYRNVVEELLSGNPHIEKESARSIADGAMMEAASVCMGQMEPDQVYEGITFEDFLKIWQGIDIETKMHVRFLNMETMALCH", "UniProt Q9NZ01": "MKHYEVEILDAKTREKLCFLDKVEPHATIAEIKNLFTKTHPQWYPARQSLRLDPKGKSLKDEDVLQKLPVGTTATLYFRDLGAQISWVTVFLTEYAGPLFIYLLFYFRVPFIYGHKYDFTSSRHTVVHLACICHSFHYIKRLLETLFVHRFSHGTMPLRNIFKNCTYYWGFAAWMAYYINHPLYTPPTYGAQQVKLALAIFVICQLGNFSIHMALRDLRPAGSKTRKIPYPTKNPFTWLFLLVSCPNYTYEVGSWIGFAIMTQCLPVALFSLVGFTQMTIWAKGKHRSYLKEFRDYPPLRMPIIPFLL", "UniProt Q8NFU7": "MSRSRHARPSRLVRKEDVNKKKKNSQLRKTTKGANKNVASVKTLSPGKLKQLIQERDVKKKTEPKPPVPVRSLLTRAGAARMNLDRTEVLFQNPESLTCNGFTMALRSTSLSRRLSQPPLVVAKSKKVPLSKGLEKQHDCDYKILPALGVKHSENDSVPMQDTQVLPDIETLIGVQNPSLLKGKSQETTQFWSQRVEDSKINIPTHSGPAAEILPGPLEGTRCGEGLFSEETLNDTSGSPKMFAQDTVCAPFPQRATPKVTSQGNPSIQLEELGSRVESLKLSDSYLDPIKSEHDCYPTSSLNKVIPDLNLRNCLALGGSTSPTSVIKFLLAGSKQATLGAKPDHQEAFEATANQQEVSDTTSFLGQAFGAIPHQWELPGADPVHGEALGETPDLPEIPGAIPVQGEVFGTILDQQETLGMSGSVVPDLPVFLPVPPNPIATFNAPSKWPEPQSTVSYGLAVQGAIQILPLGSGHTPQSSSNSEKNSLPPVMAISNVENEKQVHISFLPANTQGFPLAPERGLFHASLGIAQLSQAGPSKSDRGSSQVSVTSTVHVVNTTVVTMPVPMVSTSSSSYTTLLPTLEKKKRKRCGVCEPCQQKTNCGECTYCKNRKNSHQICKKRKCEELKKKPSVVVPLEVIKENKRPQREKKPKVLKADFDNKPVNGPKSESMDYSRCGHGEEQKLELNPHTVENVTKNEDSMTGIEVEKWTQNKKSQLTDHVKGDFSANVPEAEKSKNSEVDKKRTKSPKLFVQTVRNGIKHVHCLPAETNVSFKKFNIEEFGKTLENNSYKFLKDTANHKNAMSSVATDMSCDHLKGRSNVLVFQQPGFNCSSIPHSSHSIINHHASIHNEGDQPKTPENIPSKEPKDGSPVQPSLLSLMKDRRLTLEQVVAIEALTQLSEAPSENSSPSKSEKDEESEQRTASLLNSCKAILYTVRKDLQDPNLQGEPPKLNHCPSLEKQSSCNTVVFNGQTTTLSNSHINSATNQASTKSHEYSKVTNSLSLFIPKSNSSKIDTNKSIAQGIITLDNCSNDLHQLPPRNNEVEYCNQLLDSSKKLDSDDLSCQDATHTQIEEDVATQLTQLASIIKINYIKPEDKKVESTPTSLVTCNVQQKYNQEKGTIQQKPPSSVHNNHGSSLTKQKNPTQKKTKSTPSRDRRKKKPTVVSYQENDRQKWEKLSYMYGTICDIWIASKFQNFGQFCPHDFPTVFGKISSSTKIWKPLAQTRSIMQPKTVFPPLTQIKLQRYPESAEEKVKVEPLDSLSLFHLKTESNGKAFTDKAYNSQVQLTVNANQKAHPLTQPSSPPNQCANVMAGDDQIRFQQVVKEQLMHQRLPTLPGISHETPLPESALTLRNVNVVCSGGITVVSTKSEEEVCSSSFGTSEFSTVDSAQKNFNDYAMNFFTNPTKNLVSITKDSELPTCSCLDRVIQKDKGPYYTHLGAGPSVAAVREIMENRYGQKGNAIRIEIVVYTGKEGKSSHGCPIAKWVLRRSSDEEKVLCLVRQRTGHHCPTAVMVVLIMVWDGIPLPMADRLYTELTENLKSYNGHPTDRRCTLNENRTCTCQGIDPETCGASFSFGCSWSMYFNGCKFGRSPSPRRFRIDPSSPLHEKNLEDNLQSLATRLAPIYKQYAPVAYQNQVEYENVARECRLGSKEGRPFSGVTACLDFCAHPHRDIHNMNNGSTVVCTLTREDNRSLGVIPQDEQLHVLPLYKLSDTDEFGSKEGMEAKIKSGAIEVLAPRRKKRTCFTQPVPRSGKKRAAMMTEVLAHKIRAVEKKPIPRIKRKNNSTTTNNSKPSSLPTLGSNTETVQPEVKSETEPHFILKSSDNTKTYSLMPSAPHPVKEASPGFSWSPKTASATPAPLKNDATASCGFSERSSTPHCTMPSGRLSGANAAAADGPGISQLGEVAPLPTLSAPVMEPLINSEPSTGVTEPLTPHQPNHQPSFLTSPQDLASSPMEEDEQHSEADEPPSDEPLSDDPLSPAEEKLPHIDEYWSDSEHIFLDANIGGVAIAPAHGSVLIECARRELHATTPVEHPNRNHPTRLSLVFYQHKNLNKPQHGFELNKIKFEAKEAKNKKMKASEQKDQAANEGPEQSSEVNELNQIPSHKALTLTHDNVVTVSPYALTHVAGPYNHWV", "UniProt P02786, whole entry, looked up": "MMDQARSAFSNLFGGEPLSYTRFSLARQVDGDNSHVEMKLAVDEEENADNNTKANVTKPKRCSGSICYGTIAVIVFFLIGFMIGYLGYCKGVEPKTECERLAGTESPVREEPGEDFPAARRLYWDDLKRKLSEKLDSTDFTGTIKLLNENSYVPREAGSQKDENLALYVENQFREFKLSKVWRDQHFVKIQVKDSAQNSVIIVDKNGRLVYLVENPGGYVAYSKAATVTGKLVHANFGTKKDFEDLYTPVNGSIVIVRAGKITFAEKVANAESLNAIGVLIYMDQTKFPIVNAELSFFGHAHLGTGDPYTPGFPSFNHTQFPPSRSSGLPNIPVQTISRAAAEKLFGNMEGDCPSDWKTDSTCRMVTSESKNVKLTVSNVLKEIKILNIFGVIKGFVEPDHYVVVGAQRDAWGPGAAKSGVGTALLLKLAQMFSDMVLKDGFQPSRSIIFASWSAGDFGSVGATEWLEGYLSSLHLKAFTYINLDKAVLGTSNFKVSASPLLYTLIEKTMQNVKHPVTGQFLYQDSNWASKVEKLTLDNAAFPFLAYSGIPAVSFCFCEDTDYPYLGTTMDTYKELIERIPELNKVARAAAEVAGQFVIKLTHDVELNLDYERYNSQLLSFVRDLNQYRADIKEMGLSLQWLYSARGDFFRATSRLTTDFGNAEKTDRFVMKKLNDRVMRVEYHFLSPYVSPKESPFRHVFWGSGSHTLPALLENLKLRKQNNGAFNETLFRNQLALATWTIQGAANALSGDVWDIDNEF", "UniProt Q15813": "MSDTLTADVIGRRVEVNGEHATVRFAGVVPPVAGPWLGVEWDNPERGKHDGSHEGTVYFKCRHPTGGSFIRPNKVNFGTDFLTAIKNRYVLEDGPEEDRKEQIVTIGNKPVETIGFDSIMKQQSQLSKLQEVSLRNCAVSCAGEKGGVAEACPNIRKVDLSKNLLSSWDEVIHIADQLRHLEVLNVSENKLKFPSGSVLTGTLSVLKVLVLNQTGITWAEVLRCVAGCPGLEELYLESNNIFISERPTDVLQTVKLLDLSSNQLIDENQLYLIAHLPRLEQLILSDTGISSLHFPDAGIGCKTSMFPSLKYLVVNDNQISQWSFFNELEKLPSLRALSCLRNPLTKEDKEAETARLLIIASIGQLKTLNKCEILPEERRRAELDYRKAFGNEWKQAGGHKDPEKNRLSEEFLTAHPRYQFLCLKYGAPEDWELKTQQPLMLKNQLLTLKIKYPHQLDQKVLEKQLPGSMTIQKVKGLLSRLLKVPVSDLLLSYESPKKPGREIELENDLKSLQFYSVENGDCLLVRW", "UniProt Q7Z7C8, whole entry, looked up": "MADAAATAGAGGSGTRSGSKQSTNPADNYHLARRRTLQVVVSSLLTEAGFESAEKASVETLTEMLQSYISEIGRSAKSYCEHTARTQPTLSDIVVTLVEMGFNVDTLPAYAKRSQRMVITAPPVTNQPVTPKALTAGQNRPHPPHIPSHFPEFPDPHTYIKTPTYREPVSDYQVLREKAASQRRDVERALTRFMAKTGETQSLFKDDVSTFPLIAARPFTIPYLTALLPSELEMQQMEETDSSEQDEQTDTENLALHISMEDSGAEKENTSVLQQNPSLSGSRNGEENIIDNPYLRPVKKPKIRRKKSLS", "UniProt Q15814": "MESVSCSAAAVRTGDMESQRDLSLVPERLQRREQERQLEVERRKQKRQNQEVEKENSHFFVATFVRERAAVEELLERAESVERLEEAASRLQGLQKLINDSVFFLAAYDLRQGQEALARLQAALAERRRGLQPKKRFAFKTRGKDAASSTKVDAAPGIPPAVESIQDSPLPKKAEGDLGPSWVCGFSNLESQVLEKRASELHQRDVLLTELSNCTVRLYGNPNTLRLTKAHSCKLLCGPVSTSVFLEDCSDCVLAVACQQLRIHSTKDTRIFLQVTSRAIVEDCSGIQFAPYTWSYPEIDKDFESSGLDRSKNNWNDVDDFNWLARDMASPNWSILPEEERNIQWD", "UniProt Q16594, whole entry, looked up": "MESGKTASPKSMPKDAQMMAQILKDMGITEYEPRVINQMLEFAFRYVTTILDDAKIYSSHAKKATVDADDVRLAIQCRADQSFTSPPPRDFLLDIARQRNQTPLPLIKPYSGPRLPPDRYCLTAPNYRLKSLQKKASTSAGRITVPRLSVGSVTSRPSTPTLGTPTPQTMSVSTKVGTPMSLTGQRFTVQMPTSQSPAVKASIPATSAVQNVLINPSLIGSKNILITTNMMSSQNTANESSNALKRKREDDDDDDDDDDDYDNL", "UniProt Q12788": "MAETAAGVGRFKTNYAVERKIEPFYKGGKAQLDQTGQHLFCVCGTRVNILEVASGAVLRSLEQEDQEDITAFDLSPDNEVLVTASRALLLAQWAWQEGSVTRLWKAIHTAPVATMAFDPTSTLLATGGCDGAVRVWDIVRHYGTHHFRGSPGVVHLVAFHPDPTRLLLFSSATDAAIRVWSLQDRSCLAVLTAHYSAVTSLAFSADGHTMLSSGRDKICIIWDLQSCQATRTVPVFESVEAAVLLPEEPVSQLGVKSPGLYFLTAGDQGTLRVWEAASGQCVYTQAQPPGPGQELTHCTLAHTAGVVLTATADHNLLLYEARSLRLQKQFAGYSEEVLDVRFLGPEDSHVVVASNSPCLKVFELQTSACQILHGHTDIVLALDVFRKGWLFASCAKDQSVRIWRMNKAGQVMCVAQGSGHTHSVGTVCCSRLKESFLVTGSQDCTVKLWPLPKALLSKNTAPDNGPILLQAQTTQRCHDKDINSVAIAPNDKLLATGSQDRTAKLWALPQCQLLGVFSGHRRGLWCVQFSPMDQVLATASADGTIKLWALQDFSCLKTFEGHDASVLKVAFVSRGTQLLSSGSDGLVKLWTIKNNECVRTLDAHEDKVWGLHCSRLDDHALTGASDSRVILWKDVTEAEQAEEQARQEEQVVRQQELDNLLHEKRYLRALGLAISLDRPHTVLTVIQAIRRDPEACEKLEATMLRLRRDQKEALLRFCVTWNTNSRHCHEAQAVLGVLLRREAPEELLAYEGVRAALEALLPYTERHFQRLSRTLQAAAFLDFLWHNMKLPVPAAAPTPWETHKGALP", "UniProt Q92844": "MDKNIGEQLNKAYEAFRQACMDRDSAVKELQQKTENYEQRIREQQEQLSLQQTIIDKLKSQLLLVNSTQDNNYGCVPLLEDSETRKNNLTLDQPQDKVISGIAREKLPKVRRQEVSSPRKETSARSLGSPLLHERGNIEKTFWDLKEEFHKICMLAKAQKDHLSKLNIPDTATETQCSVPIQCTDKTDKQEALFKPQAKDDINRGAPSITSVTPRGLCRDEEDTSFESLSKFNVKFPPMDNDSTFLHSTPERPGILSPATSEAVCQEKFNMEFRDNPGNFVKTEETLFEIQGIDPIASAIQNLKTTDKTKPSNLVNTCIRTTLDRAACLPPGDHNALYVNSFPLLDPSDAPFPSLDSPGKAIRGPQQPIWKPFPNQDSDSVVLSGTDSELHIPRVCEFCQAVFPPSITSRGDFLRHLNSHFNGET", "UniProt Q96EI5": "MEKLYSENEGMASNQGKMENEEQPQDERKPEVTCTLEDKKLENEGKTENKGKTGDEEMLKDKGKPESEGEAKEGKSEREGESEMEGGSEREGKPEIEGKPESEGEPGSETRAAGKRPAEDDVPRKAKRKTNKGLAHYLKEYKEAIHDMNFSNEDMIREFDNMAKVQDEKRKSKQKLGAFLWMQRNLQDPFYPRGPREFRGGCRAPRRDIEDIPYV"}, "source": "the supplement of paper PMC10849652", "note": "The list shows a part of the results.", "data": [{"compound": "Cn1cc(-c2ccc3c(c2)CCN3C(=O)Cc2cccc(C(F)(F)F)c2)c2c(N)ncnc21", "test": "log2 fold change, soluble protein after heating vs DMSO (PISA); higher = thermal stabilisation; K562 lysate, 10 uM; active = over 0.2 and 3.5 SD of the protein, either way, in both replicates (recomputed)", "summary_of_the_method": "(§1)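 Dounce homogenisation of K562 pellets in PBS pH 7.4 with 1 mM MgCl2 produced a crude extract, used at 1 mg/mL protein. Exposure to 10 μM compound lasted 30 min, and aliquots were then heated for 3 min across 48°C-58°C, pooled and brought to 0.5% NP-40 at 4°C. The supernatant after 21,000xg for 90 min was quantified by TMTpro 16plex LC-MS/MS with channel sums equalised. Duplicate values are given as log-two fold change in thermal stability relative to solvent controls.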", "values": [{"target": "TESC (UniProt Q96BS2)", "log2 fold change": "inactive: 0.02"}, {"target": "TECR (UniProt Q9NZ01)", "log2 fold change": "inactive: -0.043"}, {"target": "TET1 (UniProt Q8NFU7)", "log2 fold change": "inactive: -0.091"}, {"target": "TFRC (UniProt P02786)", "log2 fold change": "inactive: -0.013"}, {"target": "TBCE (UniProt Q15813)", "log2 fold change": "inactive: 0.049"}, {"target": "TAF8 isoform 2 (UniProt Q7Z7C8)", "log2 fold change": "inactive: -0.068"}, {"target": "TBCC (UniProt Q15814)", "log2 fold change": "inactive: -0.005"}, {"target": "TAF9 (UniProt Q16594)", "log2 fold change": "inactive: 0.021"}, {"target": "TAF9B (UniProt Q9HBM6)", "log2 fold change": "inactive: -0.023"}, {"target": "TBL3 (UniProt Q12788)", "log2 fold change": "inactive: 0.011"}]}, {"compound": "Cn1cc(CNCC2CCN(c3ncc(C(=O)NO)cn3)CC2)c2ccccc21 [quisinostat]", "test": "log2 fold change, soluble protein after heating vs DMSO (PISA); higher = thermal stabilisation; K562 lysate, 10 uM; active = over 0.2 and 3.5 SD of the protein, either way, in both replicates (recomputed)", "summary_of_the_method": "as §1", "values": [{"target": "TBC1D13 (UniProt Q9NVG8)", "log2 fold change": "inactive: 0.008"}, {"target": "TBC1D2 (UniProt Q9BYX2)", "log2 fold change": "inactive: -0.131"}, {"target": "TEX264 (UniProt Q9Y6I9)", "log2 fold change": "inactive: 0.068"}, {"target": "TANGO6 (UniProt Q9C0B7)", "log2 fold change": "inactive: -0.056"}, {"target": "TAOK3 (UniProt Q9H2K8)", "log2 fold change": "inactive: -0.022"}, {"target": "TANK (UniProt Q92844)", "log2 fold change": "inactive: -0.053"}, {"target": "TBC1D15 isoform 3 (UniProt Q8TC07)", "log2 fold change": "inactive: -0.072"}, {"target": "TEX10 (UniProt Q9NXF1)", "log2 fold change": "inactive: 0.014"}, {"target": "TBC1D20 isoform 3 (UniProt Q96BZ9)", "log2 fold change": "inactive: -0.021"}, {"target": "TBC1D2B (UniProt Q9UPU7)", "log2 fold change": "inactive: 0.007"}, {"target": "TAF6L (UniProt Q9Y6J9)", "log2 fold change": "inactive: 0.018"}, {"target": "TAOK1 (UniProt Q7L7X3)", "log2 fold change": "inactive: -0.022"}, {"target": "TBP (UniProt P20226)", "log2 fold change": "inactive: -0.153"}, {"target": "TARS2 (UniProt Q9BW92)", "log2 fold change": "inactive: -0.134"}, {"target": "TERF2 (UniProt Q15554)", "log2 fold change": "inactive: -0.005"}, {"target": "TBCK (UniProt Q8TEA7)", "log2 fold change": "inactive: -0.066"}, {"target": "TCEAL4 isoform 2 (UniProt Q96EI5)", "log2 fold change": "inactive: -0.023"}, {"target": "TBC1D22B (UniProt Q9NU19)", "log2 fold change": "inactive: 0.048"}, {"target": "TBC1D8B (UniProt Q0IIM8)", "log2 fold change": "inactive: -0.061"}, {"target": "TBC1D10A (UniProt Q9BXI6)", "log2 fold change": "inactive: 0.025"}, {"target": "TFIP11 (UniProt Q9UBB9)", "log2 fold change": "inactive: -0.067"}, {"target": "TFDP1 (UniProt Q14186)", "log2 fold change": "inactive: -0.021"}, {"target": "TEPSIN, A0A1B0GV70", "log2 fold change": "inactive: 0.099"}, {"target": "TESC (UniProt Q96BS2)", "log2 fold change": "inactive: 0.012"}, {"target": "TECR (UniProt Q9NZ01)", "log2 fold change": "inactive: -0.024"}, {"target": "TET1 (UniProt Q8NFU7)", "log2 fold change": "inactive: -0.582"}, {"target": "TFRC (UniProt P02786)", "log2 fold change": "inactive: 0.003"}, {"target": "TBCE (UniProt Q15813)", "log2 fold change": "inactive: -0.025"}, {"target": "TAF8 isoform 2 (UniProt Q7Z7C8)", "log2 fold change": "inactive: 0.017"}, {"target": "TBCC (UniProt Q15814)", "log2 fold change": "inactive: -0.01"}, {"target": "TAF9 (UniProt Q16594)", "log2 fold change": "inactive: -0.055"}, {"target": "TAF9B (UniProt Q9HBM6)", "log2 fold change": "inactive: 0.004"}, {"target": "TBL3 (UniProt Q12788)", "log2 fold change": "inactive: -0.046"}]}, {"compound": "Cn1cncc1[C@@](N)(c1ccc(Cl)cc1)c1ccc2c(c1)c(-c1cccc(Cl)c1)cc(=O)n2C [tipifarnib]", "test": "log2 fold change, soluble protein after heating vs DMSO (PISA); higher = thermal stabilisation; K562 lysate, 10 uM; active = over 0.2 and 3.5 SD of the protein, either way, in both replicates (recomputed)", "summary_of_the_method": "as §1", "values": [{"target": "TBC1D13 (UniProt Q9NVG8)", "log2 fold change": "inactive: -0.034"}, {"target": "TBC1D2 (UniProt Q9BYX2)", "log2 fold change": "inactive: -0.021"}, {"target": "TEX264 (UniProt Q9Y6I9)", "log2 fold change": "inactive: -0.103"}, {"target": "TANGO6 (UniProt Q9C0B7)", "log2 fold change": "inactive: 0.044"}, {"target": "TAOK3 (UniProt Q9H2K8)", "log2 fold change": "inactive: 0.007"}, {"target": "TANK (UniProt Q92844)", "log2 fold change": "inactive: -0.071"}, {"target": "TBC1D15 isoform 3 (UniProt Q8TC07)", "log2 fold change": "inactive: -0.024"}, {"target": "TEX10 (UniProt Q9NXF1)", "log2 fold change": "inactive: 0"}, {"target": "TBC1D2B (UniProt Q9UPU7)", "log2 fold change": "inactive: -0.087"}, {"target": "TAF6L (UniProt Q9Y6J9)", "log2 fold change": "inactive: -0.032"}, {"target": "TAOK1 (UniProt Q7L7X3)", "log2 fold change": "inactive: 0.062"}, {"target": "TBP (UniProt P20226)", "log2 fold change": "inactive: -0.063"}, {"target": "TARS2 (UniProt Q9BW92)", "log2 fold change": "inactive: -0.015"}, {"target": "TERF2 (UniProt Q15554)", "log2 fold change": "inactive: 0.006"}, {"target": "TBCK (UniProt Q8TEA7)", "log2 fold change": "inactive: 0.082"}, {"target": "TBC1D22B (UniProt Q9NU19)", "log2 fold change": "inactive: -0.031"}, {"target": "TBC1D8B (UniProt Q0IIM8)", "log2 fold change": "inactive: 0.036"}, {"target": "TBC1D10A (UniProt Q9BXI6)", "log2 fold change": "inactive: -0.009"}, {"target": "TFIP11 (UniProt Q9UBB9)", "log2 fold change": "inactive: -0.005"}, {"target": "TFDP1 (UniProt Q14186)", "log2 fold change": "inactive: 0.008"}, {"target": "TEPSIN, A0A1B0GV70", "log2 fold change": "inactive: -0.129"}, {"target": "TESC (UniProt Q96BS2)", "log2 fold change": "inactive: 0.012"}, {"target": "TECR (UniProt Q9NZ01)", "log2 fold change": "inactive: -0.09"}, {"target": "TET1 (UniProt Q8NFU7)", "log2 fold change": "inactive: -0.056"}, {"target": "TFRC (UniProt P02786)", "log2 fold change": "inactive: -0.006"}, {"target": "TBCE (UniProt Q15813)", "log2 fold change": "inactive: -0.005"}, {"target": "TAF8 isoform 2 (UniProt Q7Z7C8)", "log2 fold change": "inactive: -0.113"}, {"target": "TBCC (UniProt Q15814)", "log2 fold change": "inactive: 0.018"}, {"target": "TAF9 (UniProt Q16594)", "log2 fold change": "inactive: -0.029"}, {"target": "TBL3 (UniProt Q12788)", "log2 fold change": "inactive: 0.008"}]}]}
